According to the supplement of paper PMC10849652:
The other results are listed elsewhere or left out.

Chains of the proteins cited; added tags and fusions are not shown. Lines headed by an entry give the natural chain unless they say otherwise; changes in a name come on top.
UniProt Q9BV68: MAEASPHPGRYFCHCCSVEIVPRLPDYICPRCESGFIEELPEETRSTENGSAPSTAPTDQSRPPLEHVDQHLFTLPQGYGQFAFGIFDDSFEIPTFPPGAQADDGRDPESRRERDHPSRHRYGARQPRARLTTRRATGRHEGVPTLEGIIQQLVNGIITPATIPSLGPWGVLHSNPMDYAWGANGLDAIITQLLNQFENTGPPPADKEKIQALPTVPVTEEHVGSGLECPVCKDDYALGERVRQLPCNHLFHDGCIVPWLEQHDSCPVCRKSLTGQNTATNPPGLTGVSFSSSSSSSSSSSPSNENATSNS
UniProt Q5TBB1: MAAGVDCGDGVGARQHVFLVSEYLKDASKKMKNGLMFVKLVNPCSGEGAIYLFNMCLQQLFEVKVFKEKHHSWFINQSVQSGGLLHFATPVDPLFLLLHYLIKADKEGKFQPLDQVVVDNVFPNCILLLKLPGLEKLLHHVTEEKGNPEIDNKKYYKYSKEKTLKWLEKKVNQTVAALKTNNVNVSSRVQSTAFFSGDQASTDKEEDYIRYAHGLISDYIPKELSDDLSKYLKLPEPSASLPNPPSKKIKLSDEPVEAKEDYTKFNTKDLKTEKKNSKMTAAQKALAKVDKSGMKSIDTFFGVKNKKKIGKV
UniProt Q96TC7: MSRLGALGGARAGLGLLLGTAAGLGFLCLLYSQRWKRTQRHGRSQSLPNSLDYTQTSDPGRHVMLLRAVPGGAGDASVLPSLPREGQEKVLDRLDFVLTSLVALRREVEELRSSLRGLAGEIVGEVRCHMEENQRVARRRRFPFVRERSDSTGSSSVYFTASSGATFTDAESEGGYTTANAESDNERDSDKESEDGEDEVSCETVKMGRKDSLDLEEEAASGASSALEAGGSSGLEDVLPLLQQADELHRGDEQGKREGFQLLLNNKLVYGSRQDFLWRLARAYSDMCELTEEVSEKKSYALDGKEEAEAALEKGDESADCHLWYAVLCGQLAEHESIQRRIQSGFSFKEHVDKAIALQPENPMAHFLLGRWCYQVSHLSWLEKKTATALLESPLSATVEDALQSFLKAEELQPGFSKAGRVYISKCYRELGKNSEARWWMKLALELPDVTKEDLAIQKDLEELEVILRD
UniProt Q96NA2: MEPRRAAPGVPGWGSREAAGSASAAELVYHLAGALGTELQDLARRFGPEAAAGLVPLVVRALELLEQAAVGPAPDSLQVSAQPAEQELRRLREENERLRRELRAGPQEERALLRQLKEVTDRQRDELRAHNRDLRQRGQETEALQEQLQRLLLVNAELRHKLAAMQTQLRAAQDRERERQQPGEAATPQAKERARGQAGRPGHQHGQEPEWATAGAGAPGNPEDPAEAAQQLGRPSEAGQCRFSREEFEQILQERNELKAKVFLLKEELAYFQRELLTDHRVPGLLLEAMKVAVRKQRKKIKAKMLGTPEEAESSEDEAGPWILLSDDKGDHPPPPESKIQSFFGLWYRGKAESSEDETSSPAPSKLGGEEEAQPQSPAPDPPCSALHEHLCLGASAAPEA
UniProt Q96DM3: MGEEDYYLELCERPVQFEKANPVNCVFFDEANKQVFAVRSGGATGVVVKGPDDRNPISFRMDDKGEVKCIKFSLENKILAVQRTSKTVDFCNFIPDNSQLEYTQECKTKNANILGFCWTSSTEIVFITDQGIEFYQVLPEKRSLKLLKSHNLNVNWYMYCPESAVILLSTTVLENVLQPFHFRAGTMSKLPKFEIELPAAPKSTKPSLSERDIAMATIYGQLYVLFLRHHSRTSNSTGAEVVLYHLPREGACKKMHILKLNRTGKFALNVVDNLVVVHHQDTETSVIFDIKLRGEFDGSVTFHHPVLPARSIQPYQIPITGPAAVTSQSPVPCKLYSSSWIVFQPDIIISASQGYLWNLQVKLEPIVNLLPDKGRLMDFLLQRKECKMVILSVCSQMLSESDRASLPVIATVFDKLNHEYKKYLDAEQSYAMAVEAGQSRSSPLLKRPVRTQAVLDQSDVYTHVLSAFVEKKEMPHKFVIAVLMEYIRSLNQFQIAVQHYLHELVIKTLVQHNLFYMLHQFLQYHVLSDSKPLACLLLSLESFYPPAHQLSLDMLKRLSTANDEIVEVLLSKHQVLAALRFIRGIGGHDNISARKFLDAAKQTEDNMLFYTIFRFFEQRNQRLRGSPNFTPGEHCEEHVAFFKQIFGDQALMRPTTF
UniProt Q969K3: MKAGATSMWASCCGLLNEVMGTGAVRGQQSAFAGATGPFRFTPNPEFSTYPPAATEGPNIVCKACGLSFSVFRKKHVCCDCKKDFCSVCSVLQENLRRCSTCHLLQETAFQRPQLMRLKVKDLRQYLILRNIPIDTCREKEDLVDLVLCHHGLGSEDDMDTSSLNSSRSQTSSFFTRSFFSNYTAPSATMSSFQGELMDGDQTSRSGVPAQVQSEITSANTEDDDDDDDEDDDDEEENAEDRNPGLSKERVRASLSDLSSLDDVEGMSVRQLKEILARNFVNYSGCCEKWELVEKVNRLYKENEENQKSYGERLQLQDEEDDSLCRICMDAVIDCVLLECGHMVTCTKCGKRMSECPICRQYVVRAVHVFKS
UniProt O75116: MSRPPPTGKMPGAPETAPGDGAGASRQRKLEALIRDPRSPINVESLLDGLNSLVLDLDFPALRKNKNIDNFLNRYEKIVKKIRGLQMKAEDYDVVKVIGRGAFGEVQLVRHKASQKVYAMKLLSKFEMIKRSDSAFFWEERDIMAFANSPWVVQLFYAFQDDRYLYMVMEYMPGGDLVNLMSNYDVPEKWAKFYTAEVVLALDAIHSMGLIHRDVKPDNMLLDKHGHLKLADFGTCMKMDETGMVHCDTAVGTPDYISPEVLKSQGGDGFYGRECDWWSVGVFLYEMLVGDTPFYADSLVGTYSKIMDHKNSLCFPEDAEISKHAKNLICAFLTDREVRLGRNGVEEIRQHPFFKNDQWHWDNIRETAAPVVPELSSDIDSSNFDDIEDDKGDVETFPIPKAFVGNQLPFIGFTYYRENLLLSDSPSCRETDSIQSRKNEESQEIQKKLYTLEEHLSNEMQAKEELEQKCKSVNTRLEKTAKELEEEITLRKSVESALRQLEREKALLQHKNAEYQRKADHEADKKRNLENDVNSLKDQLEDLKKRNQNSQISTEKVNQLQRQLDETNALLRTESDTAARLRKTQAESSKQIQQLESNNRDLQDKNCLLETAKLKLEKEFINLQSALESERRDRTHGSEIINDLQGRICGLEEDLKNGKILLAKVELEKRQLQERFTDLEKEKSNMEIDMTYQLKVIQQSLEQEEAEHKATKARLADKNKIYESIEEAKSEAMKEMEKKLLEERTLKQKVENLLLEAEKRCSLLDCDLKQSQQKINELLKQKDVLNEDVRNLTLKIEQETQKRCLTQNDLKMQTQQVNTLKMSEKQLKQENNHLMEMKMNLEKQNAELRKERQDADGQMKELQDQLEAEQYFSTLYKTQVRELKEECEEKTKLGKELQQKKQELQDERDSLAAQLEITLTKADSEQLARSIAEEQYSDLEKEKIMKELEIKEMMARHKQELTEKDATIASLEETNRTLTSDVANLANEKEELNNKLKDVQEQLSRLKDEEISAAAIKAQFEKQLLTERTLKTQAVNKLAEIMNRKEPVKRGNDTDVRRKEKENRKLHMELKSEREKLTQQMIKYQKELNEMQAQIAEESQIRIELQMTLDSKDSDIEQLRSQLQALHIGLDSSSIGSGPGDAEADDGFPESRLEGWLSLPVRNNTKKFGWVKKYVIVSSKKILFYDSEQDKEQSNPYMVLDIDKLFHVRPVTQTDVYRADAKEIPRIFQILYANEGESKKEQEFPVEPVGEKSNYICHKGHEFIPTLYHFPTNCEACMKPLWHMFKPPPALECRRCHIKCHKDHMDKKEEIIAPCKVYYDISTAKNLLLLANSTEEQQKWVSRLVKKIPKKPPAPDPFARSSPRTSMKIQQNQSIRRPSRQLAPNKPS
UniProt P15927: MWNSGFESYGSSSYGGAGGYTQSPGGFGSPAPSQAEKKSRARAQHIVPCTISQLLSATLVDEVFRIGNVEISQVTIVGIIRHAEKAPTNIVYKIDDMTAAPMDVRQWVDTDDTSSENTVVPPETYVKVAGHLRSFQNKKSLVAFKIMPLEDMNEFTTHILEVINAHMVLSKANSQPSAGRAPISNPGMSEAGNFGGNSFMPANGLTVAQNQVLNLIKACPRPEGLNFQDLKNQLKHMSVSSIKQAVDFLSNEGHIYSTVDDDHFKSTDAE
UniProt Q9BRS2: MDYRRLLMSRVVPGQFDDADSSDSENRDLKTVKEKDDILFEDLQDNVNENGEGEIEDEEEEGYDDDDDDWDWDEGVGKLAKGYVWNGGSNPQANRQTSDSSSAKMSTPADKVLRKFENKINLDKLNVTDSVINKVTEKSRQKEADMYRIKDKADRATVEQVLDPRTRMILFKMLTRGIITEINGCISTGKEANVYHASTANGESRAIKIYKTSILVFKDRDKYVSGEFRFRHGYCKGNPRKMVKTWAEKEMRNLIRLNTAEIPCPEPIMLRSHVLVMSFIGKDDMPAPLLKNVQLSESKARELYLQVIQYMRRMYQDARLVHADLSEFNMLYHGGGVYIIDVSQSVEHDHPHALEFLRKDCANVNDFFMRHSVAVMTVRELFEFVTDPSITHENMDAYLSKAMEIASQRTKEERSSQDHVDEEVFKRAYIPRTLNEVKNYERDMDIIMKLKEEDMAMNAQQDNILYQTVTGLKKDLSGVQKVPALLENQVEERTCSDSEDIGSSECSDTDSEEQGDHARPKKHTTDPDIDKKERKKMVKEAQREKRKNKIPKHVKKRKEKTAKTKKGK
UniProt Q8IXI1, whole entry, looked up: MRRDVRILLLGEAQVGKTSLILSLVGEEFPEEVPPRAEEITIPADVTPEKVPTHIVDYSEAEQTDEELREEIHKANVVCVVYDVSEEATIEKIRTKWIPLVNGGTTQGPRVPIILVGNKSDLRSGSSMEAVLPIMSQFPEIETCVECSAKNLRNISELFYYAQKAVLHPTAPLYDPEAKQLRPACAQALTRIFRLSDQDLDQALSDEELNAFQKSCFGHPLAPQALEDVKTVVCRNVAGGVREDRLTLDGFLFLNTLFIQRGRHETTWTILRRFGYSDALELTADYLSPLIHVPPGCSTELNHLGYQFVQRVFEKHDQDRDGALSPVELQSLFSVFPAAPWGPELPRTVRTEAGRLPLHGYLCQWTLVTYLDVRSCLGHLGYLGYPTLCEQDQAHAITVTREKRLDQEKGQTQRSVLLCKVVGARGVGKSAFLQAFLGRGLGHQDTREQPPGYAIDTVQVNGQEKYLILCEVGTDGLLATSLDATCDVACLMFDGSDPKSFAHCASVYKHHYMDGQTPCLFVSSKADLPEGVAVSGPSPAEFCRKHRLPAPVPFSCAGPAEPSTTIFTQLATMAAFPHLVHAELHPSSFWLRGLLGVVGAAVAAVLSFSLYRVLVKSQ
UniProt Q9H7B2: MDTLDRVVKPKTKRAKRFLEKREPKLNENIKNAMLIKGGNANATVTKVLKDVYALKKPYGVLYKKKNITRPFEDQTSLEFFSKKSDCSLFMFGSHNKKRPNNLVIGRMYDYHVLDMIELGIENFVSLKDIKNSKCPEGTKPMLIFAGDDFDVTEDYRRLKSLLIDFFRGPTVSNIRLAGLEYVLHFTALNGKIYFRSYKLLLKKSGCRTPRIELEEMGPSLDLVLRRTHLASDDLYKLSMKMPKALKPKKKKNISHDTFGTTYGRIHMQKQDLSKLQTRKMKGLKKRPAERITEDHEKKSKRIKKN
UniProt Q9UBF6, whole entry, looked up: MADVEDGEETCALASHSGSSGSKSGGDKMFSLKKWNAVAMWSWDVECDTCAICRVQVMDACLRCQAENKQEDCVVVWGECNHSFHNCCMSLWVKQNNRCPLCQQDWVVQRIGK
UniProt Q86UA6: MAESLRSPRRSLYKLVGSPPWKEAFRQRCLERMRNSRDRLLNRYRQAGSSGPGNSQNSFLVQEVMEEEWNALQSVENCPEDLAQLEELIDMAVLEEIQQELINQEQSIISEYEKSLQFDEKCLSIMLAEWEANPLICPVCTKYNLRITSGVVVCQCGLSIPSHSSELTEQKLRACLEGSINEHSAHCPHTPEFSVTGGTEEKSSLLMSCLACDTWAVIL

Tests used:
Assay in all cases: log2 fold change, soluble protein after heating vs DMSO (PISA); higher = thermal stabilisation; K562 lysate, 10 uM; active = over 0.2 and 3.5 SD of the protein, either way, in both replicates (recomputed)
[1] = compound: C1=CC=C(C=C1)[C@H](COC2=CC3=C(C=C2)NC(=O)N3)NC(=O)C4=CC=CN(C4=O)CC5=CC(=C(C=C5)F)F
In short: (§1)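 K562 pellets were dounce-homogenised in PBS pH 7.4 with 1 mM MgCl2, and the crude extract at 1 mg/mL protein was treated with 10 μM compound for 30 min. Aliquots were heated for 3 min across 48°C-58°C, pooled, and brought to 0.5% NP-40 at 4°C; soluble protein was the supernatant after 21,000xg for 90 min. Soluble protein was quantified by TMTpro 16plex LC-MS/MS with channel sums equalised, and reported as log2 fold change in thermal stability against DMSO controls, with values from duplicates.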

[2] = compound: CC1=C(SC2=C1C(=N[C@H](C3=NN=C(N32)C)CC(=O)N)C4=CC=C(C=C4)Cl)C
In short: as §1

[3] = compound: CC1=C2C(=CC=C1)N=C(N(C2=O)C3=CC=CC=C3C)CN4C=NC5=C(N=CN=C54)N
In short: as §1

[4] = compound: Cc1sc2c(c1C)C(c1ccc(Cl)cc1)=N[C@@H](CC(=O)OC(C)(C)C)c1nnc(C)n1-2
In short: as §1

[5] = compound: c1ccc([C@@H]2C[C@H]2NC2CCNCC2)cc1
In short: as §1

Measured: log2 fold change

RPL10 (UniProt F8W7C6)
inactive: [1] -0.026 | [2] 0.078 | [3] 0.025 | [4] -0.132 | [5] -0.092

RNF126 (UniProt Q9BV68)
inactive: [1] -0.015 | [2] -0.026 | [3] -0.06 | [4] -0.054 | [5] 0.148

RPL27 (UniProt P61353)
inactive: [1] 0.034 | [2] 0.031 | [3] 0.003 | [4] 0.008 | [5] 0.101

RNASEH2B (UniProt Q5TBB1)
inactive: [1] 0.056 | [2] -0.008 | [3] -0.032 | [4] 0.038 | [5] 0.049

RPL35 (UniProt P42766)
inactive: [1] 0.012 | [2] 0.006 | [3] -0.026 | [4] 0.014 | [5] -0.031

RMDN3 (UniProt Q96TC7)
inactive: [1] -0.011 | [2] -0.017 | [3] 0.075 | [4] -0.114 | [5] -0.035

RPL32 (UniProt P62910)
inactive: [1] 0.009 | [2] 0.001 | [3] -0.026 | [4] 0.036 | [5] 0.029

RILP (UniProt Q96NA2)
inactive: [1] 0.029 | [2] -0.004 | [3] -0.004 | [4] 0 | [5] 0.007

RMC1 (UniProt Q96DM3)
inactive: [1] -0.013 | [2] 0.018 | [3] -0.052 | [4] 0.05 | [5] 0.007

RNF34 isoform 2 (UniProt Q969K3)
inactive: [1] 0.216 | [2] -0.018 | [3] -0.037 | [4] 0.032 | [5] -0.069

ROCK2 (UniProt O75116)
inactive: [1] -0.009 | [2] 0 | [3] 0.005 | [4] 0 | [5] -0.072

RPL18 (UniProt Q07020)
inactive: [1] 0.049 | [2] -0.004 | [3] 0.016 | [4] -0.013 | [5] -0.015

Quoted at random: 2 records from the list
RMC1 (UniProt Q96DM3)
inactive: [1] -0.013 | [2] 0.018 | [3] -0.052 | [4] 0.05 | [5] 0.007

RPL18 (UniProt Q07020)
inactive: [1] 0.049 | [2] -0.004 | [3] 0.016 | [4] -0.013 | [5] -0.015

Next records follow.

RPL31 (UniProt P62899)
inactive: [1] 0.016 | [2] 0.013 | [3] -0.027 | [4] 0.041 | [5] -0.022

RPA2 isoform 3 (UniProt P15927)
inactive: [1] -0.008 | [2] 0.046 | [3] -0.021 | [4] -0.075 | [5] -0.086

RIOK1 (UniProt Q9BRS2)
inactive: [1] -0.026 | [2] -0.031 | [3] -0.003 | [4] -0.006 | [5] -0.015

RPL21 (UniProt P46778)
inactive: [1] 0.007 | [2] 0.012 | [3] 0.009 | [4] 0.023 | [5] -0.049

RPL26L1 (UniProt Q9UNX3)
inactive: [1] 0.05 | [2] -0.015 | [3] -0.028 | [4] 0.05 | [5] 0.084

RPL13 (UniProt P26373)
inactive: [1] 0.004 | [2] 0.017 | [3] -0.024 | [4] -0.003 | [5] -0.056

RHOT2 (UniProt Q8IXI1)
inactive: [1] 0.003 | [2] 0.131 | [3] 0.014 | [4] -0.024 | [5] 0.029

RPL36 (UniProt Q9Y3U8)
inactive: [1] 0.009 | [2] 0.02 | [3] -0.012 | [4] 0.015 | [5] -0.045

RPF2 (UniProt Q9H7B2)
inactive: [1] 0.092 | [2] -0.124 | [3] 0.089 | [4] 0.013 | [5] 0.104

RNF7 (UniProt Q9UBF6)
inactive: [1] -0.008 | [2] -0.008 | [3] 0.043 | [4] 0.046 | [5] -0.274

RPL29 (UniProt P47914)
inactive: [1] 0.006 | [2] -0.021 | [3] -0.013 | [4] 0.146 | [5] 0.074

RPAIN isoform 8 (UniProt Q86UA6)
inactive: [1] 0.02 | [2] -0.033 | [3] -0.096 | [5] 0.065
